The other results are listed elsewhere or left out.
Compound: CC1Cc2ccccc2N1C(=O)C1CCCN(C1)C(=O)CCl (mixture of isomers) [TRIM25 ligand 11 (diastereomer mixture)]
Assay: probe-labelled cysteine peptide fold change vs DMSO (competition) (log2 fold change); higher = less target engagement (more negative = stronger competition)
Settings: THP-1, incubation time: 4 h
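Note: competitive chemoproteomic profiling in live THP-1 cells with an iodoacetamide desthiobiotin (IA-DTB) probe, comparing probe-labelled peptide intensities in compound-treated cells against DMSO-treated controls.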

Target | probe-labelled cysteine peptide fold change (10 µM) | probe-labelled cysteine peptide fold change (50 µM)
KIAA1958_Q8N8K9_246_PKPQTHAGPSCVGSAK (UniProt Q8N8K9) | -0.0886 | -0.293
ITSN2_Q9NZM3_1429_ENSDRLEWIQAHVQCEGLAEQLIFNSLTNCLGPR (UniProt Q9NZM3) | -0.507 | -0.633
KDM4A_O75164_533_DSISSDSETSEPLSCR (UniProt O75164) | 0.143 | 0.0408
IVNS1ABP_Q9Y6Y0_454_CNAGVCALNGK (UniProt Q9Y6Y0) | -0.13 | -0.103
KIDINS220_Q9ULH0_867_FLVTSATNGDVPCSDTTGIQEDADRR (UniProt Q9ULH0) | -0.0178 | -0.0906
KDM2B_Q8NHM5_770_RSECEEAPR (UniProt Q8NHM5) | 0.117 | 0.0231
KEAP1_Q14145_288_CEILQSDSR (UniProt Q14145) | -0.0749 | -0.113
KDM3B_Q7LBC6_937_FKEQEQDDSTVACR (UniProt Q7LBC6) | 0.0203 | 0.00347
KDM3B_Q7LBC6_1212_AIRPPCPDTAPPSSALHWLADLATQK (UniProt Q7LBC6) | 0.0358 | -0.236
KDM3A_Q9Y4C1_225_TLQVNCEEIPALK (UniProt Q9Y4C1) | -0.195 | -0.31
KDSR_Q06136_121_LGPVDMLVNCAGMAVSGK (UniProt Q06136) | -0.072 | -0.0848
JMJD6_Q6NYC1_207_WCLFPTSTPR (UniProt Q6NYC1) | -0.0876 | 0.0631
KDM5C_P41229_707_GITEAEREAFELLPDDERQCIK (UniProt P41229) | 0.00664 | 0.123
KIDINS220_Q9ULH0_412_AGETPYNIDCSHQK (UniProt Q9ULH0) | -0.11 | -0.00859
KIAA0586_Q9BVV6_293_YSVKPEHPNLGSCNPSLYNTFASK (UniProt Q9BVV6) | 0.0534 | 0.00694
KDM1A_O60341_618+623_CDAVLCTLPLGVLK (UniProt O60341) | -0.0168 | 0.0371
KDM1A_O60341_360_CPLYEANGQAVPK (UniProt O60341) | 0.0216 | -0.0598
KDM4A_O75164_763_ASEDWMCSR (UniProt O75164) | 0.118 | 0.182

Target | probe-labelled cysteine peptide fold change (10 µM) | probe-labelled cysteine peptide fold change (50 µM)
KIF18B_Q86Y91_437_SGPPPEHLPSSPLPPHPPSQPCTPELPAGPR (UniProt Q86Y91) | -0.155 | -0.207
KBTBD11_O94819_455_GAFAVAHEATTCHGEIYVSGGSLFYR (UniProt O94819) | -0.034 | 0.0762
ITSN2_Q9NZM3_1414_ENSDRLEWIQAHVQCEGLAEQLIFNSLTNCLGPR (UniProt Q9NZM3) | 0.273 | 0.0125
KANK2_Q63ZY3_761+780_ALLACEADVNVQDDDGSTALMCACEHGHK (UniProt Q63ZY3) | 0.0346 | -0.091
KANSL3_Q9P2N6_161_LANEGACNEPVLR (UniProt Q9P2N6) | -0.1 | -0.297
KDM3B_Q7LBC6_904_QSGEPFLQDGSCINVAPHLHK (UniProt Q7LBC6) | -0.00194 | -0.0166
IVD_P26440_261_GSNTCELIFEDCKIPAANILGHENK (UniProt P26440) | -0.304 | -0.0593
KANK1_Q14678_1292_LLLAQPGCNGHLEDNDGSTALSIALEAGHK (UniProt Q14678) | 0.28 | 0.277
KIAA0391_O15091_469+493_QASCFFADDISEDDPFLLYATLHSGNHCR (UniProt O15091) | 0.122 | 0.133
ITPK1_Q13572_185_VAHGTNSHEMAIVFNQEGLNAIQPPCVVQNFINHNAVLYK (UniProt Q13572) | 0.233 | 0.113
KDELC1_Q6UW63_491+493_VEPQTEDDLFPCTCHR (UniProt Q6UW63) | 0.345 | -0.161
KANK2_Q63ZY3_797_EIAGLLLAVPSCDISLTDR (UniProt Q63ZY3) | -0.16 | 0.211
KBTBD2_Q8IY47_145_LLSFADLFSCEELK (UniProt Q8IY47) | -0.048 | -0.103
KIF11_P52732_25_CRPFNLAER (UniProt P52732) | 0.0374 | 0.0242
KIDINS220_Q9ULH0_1250_VLAQCNIDELKK (UniProt Q9ULH0) | -0.13 | 0.135
ITM2C_Q9NQX7_96_CGVLYEDSLSSQVR (UniProt Q9NQX7) | 0.0701 | -0.156
JMJD1C_Q15652_508_CVIDITNDTNLEK (UniProt Q15652) | -0.0651 | -0.268
JMJD1C_Q15652_2163_LYSDIPHSWICEK (UniProt Q15652) | 0.00263 | -0.0464
